The results in this text go back to paper PMC4738331, “A molecular mechanism realizing sequence-specific recognition of nucleic acids by TDP-43”.

For some assays here: A negative result means that nothing was seen under these conditions. At least one verdict was read from the data and is not stated in words by the source. For some assays here: For at least one entry, the source does not settle the construct or the ends of the probe.

Series [1] concerns the target TDP-43 RRM1-2 P112H (UniProt Q13148). The series is described as follows: fluorescence anisotropy. Conditions: legend says Fl-(UG)4; Anisotropy: 50 mM Tris, 100 mM NaCl, pH 8.0, 10 C, 0.1 uM probe, 0-30 uM protein (RNasin for RNA); recombinant protein; residues 96-267; protein details: GSSGSSG linker, His removed by thrombin; label: 5'-fluorescein; single-stranded DNA.

For series [2], the target named is TDP-43 RRM1-2 R151A (UniProt Q13148). As to the kind of experiment: fluorescence anisotropy. To be noted: Anisotropy: 50 mM Tris, 100 mM NaCl, pH 8.0, 10 C, 0.1 uM probe, 0-30 uM protein (RNasin for RNA); recombinant protein; residues 96-267; protein details: GSSGSSG linker, His removed by thrombin; label: 5'-fluorescein; single-stranded DNA.
Series [3] addresses TDP-43 RRM1-2 (UniProt Q13148). As to the kind of experiment: pull-down. Conditions: pull-down: same buffer on Ni resin, room temperature, 1 h, eluted with 1 M NaCl; recombinant protein; residues 96-267; single-stranded DNA.
Series [4] concerns the target TDP-43 RRM2 (UniProt Q13148). As to the kind of experiment: pull-down. Conditions: pull-down: same buffer on Ni resin, room temperature, 1 h, eluted with 1 M NaCl; recombinant protein; residues 186-267; single-stranded DNA.
Series [5] concerns TDP-43 RRM2-1 (swapped order). The series is described as follows: pull-down. Conditions: pull-down: same buffer on Ni resin, room temperature, 1 h, eluted with 1 M NaCl; recombinant protein; protein details: N-term His6; single-stranded DNA.

As to TGTGTGTG [Fl-(TG)4 ssDNA], the binding result in series [1] and in series [2] was “binds” in each case.
In the case of “AAAAAAAAAAAAAAAAAAAAAAAAAAAAAA [A10(AA)5A10]”, the binding result was “no binding” in series [3], “no binding” in series [4] and “binds” in series [5].
